According to article doi:10.1101/2025.09.10.675329:
No constants are given. Whether binding was seen depends on the method and setting. Binding seen in cells or lysates may run through a third protein. Some entries that bind do so weakly or less than the wild type.

How the values were obtained:
[1] = molecular target: His-MBP-cyclin B1 (amino acids 152-433, C167S, C238S, C350S) (human) (UniProt P14635); assay: pull-down
[2] = molecular target: His-MBP-CDK5 (human) (UniProt Q00535); assay: pull-down
[3] = molecular target: Flag-HA-CDK5 WT (human) (UniProt Q00535); assay: co-IP
[4] = molecular target: Flag-HA-CDK5-G152F (human) (UniProt Q00535); assay: co-IP
[5] = molecular target: Flag-HA-CDK5-G152W (human) (UniProt Q00535); assay: co-IP

His-CDK5 (from UniProt Q00535 1-292) (enzyme)
binding [1]: binds

His-cyclin B1 (amino acids 152-433, C167S, C238S, C350S) (from UniProt P14635 152-433) (domain or fragment)
binding [2]: binds

cyclin B1 (endogenous, RPE-1) (from UniProt P14635 1-433)
binding [3]: binds
binding [4]: binds
binding [5]: binds
